This is one part of the list.

Protein sequences, listed by entry. Tags and fused reporters are not part of them. Lines headed by an entry give the natural chain unless they say otherwise; changes in a name come on top.
UniProt P11172: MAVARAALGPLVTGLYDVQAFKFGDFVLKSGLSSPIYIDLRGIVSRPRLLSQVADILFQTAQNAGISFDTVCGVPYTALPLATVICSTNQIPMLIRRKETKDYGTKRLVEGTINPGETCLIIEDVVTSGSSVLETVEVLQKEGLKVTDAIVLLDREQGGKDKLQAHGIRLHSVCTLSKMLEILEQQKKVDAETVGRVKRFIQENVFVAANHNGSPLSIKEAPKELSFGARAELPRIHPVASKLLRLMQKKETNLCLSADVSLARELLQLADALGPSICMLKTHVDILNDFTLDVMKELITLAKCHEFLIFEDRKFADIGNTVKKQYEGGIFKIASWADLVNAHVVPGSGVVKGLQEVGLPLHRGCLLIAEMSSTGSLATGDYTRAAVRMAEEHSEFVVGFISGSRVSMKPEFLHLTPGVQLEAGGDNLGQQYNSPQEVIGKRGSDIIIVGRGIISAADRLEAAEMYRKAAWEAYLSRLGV
UniProt Q9NYU1: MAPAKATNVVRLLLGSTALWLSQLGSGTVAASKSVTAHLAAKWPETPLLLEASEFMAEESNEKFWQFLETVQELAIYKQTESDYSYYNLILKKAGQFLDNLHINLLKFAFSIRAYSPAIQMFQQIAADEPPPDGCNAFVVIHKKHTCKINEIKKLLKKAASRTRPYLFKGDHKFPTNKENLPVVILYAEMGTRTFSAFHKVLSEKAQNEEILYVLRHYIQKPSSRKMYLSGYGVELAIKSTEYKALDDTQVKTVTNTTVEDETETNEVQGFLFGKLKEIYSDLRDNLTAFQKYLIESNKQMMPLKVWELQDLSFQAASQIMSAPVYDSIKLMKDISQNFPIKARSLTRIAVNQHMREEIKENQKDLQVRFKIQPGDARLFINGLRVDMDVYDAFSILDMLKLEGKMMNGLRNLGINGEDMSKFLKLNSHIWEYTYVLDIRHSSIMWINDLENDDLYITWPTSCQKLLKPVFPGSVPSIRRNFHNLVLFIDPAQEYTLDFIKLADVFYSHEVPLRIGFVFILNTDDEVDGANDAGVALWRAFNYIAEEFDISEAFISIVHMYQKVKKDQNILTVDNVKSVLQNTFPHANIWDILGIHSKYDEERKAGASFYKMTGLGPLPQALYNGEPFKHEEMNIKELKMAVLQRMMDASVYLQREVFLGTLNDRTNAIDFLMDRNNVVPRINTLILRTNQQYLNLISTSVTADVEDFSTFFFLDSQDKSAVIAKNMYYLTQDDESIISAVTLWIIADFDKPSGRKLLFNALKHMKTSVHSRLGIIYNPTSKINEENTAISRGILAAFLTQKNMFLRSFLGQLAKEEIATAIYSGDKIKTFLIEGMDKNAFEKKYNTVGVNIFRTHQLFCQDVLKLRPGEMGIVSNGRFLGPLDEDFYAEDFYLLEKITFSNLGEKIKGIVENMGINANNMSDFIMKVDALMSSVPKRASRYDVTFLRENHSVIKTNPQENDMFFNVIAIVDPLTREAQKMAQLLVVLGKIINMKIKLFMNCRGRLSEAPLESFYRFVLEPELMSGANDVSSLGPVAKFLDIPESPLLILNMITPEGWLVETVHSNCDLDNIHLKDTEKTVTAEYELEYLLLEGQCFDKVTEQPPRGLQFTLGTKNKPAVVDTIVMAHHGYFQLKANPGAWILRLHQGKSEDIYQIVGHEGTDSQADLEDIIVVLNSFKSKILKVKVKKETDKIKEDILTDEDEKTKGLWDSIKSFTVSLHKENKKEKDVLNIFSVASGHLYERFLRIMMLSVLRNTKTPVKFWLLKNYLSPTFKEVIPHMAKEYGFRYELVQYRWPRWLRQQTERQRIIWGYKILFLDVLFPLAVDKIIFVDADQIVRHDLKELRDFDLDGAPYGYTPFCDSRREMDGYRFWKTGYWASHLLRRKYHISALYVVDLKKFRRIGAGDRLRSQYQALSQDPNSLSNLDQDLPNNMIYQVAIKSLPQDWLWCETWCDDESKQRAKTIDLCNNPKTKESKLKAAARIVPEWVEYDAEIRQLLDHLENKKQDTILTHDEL
UniProt Q15386: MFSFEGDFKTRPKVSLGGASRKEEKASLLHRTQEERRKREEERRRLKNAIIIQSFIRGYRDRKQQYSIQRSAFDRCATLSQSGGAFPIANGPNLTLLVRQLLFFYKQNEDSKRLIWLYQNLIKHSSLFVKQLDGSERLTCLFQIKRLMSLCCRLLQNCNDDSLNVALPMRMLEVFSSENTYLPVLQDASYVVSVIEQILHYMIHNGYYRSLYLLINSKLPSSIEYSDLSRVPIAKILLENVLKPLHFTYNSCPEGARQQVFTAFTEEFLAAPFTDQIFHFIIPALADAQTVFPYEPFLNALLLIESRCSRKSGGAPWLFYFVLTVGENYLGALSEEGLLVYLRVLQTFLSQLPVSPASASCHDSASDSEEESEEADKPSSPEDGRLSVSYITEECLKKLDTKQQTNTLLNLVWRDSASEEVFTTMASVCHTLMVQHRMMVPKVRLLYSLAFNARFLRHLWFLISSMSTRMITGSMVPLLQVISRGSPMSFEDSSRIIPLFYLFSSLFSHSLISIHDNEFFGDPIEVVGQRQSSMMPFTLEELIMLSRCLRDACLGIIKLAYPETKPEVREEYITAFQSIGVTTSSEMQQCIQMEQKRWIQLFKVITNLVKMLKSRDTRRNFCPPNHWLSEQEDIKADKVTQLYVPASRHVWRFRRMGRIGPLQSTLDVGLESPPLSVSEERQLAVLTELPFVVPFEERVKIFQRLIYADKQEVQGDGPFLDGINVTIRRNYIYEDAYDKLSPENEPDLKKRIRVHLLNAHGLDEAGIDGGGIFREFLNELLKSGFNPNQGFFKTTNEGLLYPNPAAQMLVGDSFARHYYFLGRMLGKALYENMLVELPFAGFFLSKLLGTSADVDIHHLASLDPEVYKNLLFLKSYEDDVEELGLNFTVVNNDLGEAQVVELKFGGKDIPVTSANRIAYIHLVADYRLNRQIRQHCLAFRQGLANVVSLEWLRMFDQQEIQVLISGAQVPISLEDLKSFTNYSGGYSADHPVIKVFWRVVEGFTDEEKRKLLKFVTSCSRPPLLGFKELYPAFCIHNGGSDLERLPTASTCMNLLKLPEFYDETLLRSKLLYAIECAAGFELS
UniProt P26640: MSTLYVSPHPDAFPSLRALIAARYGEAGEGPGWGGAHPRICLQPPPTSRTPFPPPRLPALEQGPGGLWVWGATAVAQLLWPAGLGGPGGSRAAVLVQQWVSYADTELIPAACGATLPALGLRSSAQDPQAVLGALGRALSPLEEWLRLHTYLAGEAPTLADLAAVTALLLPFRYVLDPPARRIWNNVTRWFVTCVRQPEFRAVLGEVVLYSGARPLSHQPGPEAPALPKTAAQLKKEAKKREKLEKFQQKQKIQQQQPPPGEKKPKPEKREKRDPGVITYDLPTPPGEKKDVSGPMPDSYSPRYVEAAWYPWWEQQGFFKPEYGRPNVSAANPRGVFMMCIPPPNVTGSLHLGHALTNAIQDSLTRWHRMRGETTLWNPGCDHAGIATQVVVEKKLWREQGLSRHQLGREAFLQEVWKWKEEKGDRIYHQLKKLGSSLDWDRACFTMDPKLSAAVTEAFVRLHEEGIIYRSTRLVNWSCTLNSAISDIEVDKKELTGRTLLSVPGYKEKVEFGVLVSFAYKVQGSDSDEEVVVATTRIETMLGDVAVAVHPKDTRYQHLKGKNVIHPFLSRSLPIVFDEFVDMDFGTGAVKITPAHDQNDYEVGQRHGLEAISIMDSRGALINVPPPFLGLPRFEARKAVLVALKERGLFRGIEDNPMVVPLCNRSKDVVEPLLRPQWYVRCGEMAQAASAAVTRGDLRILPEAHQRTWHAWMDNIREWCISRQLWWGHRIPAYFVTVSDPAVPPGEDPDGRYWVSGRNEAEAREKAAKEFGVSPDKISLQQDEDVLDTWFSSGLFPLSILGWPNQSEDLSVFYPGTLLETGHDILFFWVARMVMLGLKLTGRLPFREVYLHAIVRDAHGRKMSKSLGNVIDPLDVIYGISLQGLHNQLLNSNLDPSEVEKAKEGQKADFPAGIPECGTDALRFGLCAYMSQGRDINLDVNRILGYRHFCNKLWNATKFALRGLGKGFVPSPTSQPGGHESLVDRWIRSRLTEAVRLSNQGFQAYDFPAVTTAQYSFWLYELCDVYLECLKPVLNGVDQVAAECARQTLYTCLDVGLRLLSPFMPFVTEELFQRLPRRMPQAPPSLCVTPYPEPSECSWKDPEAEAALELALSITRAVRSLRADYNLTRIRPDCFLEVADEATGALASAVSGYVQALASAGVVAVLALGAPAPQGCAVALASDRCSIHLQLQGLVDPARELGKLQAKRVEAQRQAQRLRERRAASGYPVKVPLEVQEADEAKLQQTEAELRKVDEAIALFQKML
UniProt Q9NYU2: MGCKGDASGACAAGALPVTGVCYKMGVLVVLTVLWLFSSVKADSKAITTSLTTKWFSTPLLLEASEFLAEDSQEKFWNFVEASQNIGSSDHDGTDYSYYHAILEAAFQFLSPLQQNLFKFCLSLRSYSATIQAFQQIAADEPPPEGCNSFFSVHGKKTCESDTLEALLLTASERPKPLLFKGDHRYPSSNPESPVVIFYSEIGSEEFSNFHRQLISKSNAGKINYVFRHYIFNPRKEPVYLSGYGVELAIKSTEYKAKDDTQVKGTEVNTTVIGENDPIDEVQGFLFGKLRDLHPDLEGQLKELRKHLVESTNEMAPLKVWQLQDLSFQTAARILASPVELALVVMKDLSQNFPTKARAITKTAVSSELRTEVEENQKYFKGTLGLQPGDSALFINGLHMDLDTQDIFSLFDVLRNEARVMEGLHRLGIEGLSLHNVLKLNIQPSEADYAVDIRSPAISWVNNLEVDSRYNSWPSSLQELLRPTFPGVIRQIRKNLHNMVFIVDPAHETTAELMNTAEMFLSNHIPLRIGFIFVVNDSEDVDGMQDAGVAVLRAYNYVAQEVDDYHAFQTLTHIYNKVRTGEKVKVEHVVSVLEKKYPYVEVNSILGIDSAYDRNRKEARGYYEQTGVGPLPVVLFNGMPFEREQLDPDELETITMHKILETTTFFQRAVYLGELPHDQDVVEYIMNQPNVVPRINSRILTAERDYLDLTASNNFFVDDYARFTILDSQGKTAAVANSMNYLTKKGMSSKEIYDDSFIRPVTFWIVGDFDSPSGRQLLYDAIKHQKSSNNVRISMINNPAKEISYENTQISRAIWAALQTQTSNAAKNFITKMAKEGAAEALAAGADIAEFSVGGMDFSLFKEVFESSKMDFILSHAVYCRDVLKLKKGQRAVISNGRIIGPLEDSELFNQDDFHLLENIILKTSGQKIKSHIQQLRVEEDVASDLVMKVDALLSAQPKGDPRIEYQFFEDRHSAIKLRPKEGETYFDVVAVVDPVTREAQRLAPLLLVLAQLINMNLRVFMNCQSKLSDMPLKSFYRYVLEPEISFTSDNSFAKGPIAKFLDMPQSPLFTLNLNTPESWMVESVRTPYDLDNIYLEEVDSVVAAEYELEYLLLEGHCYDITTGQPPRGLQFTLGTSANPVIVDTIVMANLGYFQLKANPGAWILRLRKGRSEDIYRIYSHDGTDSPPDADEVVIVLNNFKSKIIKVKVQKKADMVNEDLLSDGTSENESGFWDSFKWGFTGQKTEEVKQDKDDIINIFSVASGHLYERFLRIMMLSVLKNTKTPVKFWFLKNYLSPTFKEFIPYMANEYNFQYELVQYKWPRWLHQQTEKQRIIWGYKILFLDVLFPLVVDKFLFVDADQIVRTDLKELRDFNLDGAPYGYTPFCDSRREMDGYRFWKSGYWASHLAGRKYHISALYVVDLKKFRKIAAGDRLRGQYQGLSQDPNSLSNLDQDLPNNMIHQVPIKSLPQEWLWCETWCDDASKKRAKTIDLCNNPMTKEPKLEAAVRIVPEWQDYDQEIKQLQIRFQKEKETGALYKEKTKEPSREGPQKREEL
UniProt Q9BRT2: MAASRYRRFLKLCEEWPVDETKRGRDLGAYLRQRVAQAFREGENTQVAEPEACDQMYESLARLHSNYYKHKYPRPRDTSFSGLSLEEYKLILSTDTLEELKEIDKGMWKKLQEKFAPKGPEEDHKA
UniProt P54578: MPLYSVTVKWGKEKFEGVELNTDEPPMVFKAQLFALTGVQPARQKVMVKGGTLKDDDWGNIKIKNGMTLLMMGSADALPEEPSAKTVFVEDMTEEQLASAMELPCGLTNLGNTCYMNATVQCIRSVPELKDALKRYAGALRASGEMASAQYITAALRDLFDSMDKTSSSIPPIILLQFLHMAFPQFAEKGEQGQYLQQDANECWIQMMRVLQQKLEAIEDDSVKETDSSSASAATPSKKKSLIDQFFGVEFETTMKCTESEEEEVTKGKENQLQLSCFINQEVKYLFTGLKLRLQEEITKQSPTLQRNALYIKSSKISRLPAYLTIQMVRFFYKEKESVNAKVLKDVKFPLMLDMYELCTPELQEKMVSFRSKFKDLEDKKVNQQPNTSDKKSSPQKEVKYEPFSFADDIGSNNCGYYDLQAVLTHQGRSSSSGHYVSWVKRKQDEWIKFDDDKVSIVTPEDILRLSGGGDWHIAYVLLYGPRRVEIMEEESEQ

Experimental findings from the supplement of paper PMC10849652 are described below.

Compound in this experiment: NC(=O)Nc1cc(-c2cccc(F)c2)sc1C(=O)N[C@H]1CCCNC1
Briefly: log2 fold change, soluble protein after heating vs DMSO (PISA); higher = thermal stabilisation; K562 cells, 10 uM, 30 min; active = over 0.2 and 3.5 SD of the protein, either way, in both replicates (recomputed). The gist of the method: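 Quantification of soluble protein used TMTpro 16plex LC-MS/MS, with channel sums equalised. Samples were the supernatant after 21,000xg for 90 min of pooled aliquots from K562 cells (2×10^6 cells/mL) treated with 10 μM compound for 30 min, heated for 3 min over 48°C-58°C, and extracted in PBS with 0.5% NP-40 at 4°C. Values, from duplicates, describe thermal stability against control samples on a log2 fold-change scale.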
Consider USE1 (UniProt Q9NZ43), for which the log2 fold change is inactive: -0.011.

URI1 (UniProt O94763): the log2 fold change is inactive: -0.042.

Consider UMPS (UniProt P11172), for which the log2 fold change is inactive: 0.

In the case of UTP3 (UniProt Q9NQZ2), the log2 fold change is inactive: 0.093.

For the target UIMC1 (UniProt Q96RL1), the log2 fold change is inactive: 0.011.

Take USP8 (UniProt P40818): the log2 fold change was inactive: -0.074.

As to UGGT2 (UniProt Q9NYU1), the log2 fold change was inactive: -0.083.

For the target UBR4 isoform 2 (UniProt Q5T4S7), the log2 fold change was inactive: 0.

UBE3C (UniProt Q15386): the log2 fold change is inactive: 0.011.

Consider UQCRFS1 (UniProt P47985), for which the log2 fold change was inactive: 0.088.

For UBQLN1 (UniProt Q9UMX0), the log2 fold change is inactive: 0.026.

As for UTP14A (UniProt Q9BVJ6), the log2 fold change is inactive: 0.079.

Regarding UBXN7 (UniProt O94888), the log2 fold change was inactive: 0.019.

As to VAMP4 (UniProt O75379), the log2 fold change was inactive: -0.043.

Take VAPA (UniProt Q9P0L0): the log2 fold change was inactive: 0.003.

On to VARS (UniProt P26640), for which the log2 fold change was inactive: -0.01.

UCKL1 (UniProt Q9NWZ5): the log2 fold change was inactive: -0.033.

Regarding USP48 isoform 8 (UniProt Q86UV5), the log2 fold change is inactive: -0.077.

For VCL (UniProt P18206), the log2 fold change is inactive: 0.045.

UGGT1 (UniProt Q9NYU2): the log2 fold change is inactive: 0.028.

As to UQCC2 (UniProt Q9BRT2), the log2 fold change was inactive: -0.014.

For UBR7 (UniProt Q8N806), the log2 fold change was inactive: -0.021.

With USP5 (UniProt P45974), the log2 fold change is inactive: -0.041.

Take UQCRH (UniProt P07919): the log2 fold change was inactive: -0.033.

USP10 isoform 2 (UniProt Q14694): the log2 fold change was inactive: 0.

Regarding UROS (UniProt P10746), the log2 fold change is inactive: -0.008.

As to UCHL3 (UniProt P15374), the log2 fold change is inactive: -0.024.

In the case of UFD1 isoform 1 (UniProt Q92890), the log2 fold change was inactive: -0.001.

Take VARS2, A0A0G2JL52: the log2 fold change is inactive: 0.013.

Take VAPA isoform 2 (UniProt Q9P0L0): the log2 fold change was inactive: -0.028.

As for UQCRC2 (UniProt P22695), the log2 fold change was inactive: 0.044.

For USP15 (UniProt Q9Y4E8), the log2 fold change is inactive: -0.017.

As for UBE4B isoform 4 (UniProt O95155), the log2 fold change was inactive: 0.005.

UGT8 (UniProt Q16880): the log2 fold change was inactive: -0.049.

UROD (UniProt P06132): the log2 fold change was inactive: -0.01.

UEVLD (UniProt Q8IX04): the log2 fold change is inactive: 0.247.

In the case of USP9X (UniProt Q93008), the log2 fold change is inactive: 0.

As for USP14 (UniProt P54578), the log2 fold change is inactive: -0.008.

With VASP (UniProt P50552), the log2 fold change was inactive: -0.07.
